The target of the assay is T1, TNF-α receptor Tnr1a (Tnfr1) (mouse) (UniProt P25118).
T1 sequence: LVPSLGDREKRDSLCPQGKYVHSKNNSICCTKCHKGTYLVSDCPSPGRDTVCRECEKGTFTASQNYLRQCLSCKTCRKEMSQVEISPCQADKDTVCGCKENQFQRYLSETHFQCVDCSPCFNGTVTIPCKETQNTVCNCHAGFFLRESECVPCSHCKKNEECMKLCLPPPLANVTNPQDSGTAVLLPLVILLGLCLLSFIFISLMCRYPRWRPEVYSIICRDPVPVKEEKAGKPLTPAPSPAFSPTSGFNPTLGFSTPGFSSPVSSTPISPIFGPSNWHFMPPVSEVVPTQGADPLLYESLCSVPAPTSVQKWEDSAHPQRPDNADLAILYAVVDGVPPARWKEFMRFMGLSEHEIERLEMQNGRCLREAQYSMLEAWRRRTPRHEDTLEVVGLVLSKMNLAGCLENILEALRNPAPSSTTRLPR
In words: co-IP; cells or tissues lysed in NP-40 buffer with protease and phosphatase inhibitors; specific antibody, Protein A/G magnetic beads, washed with NP-40 buffer, eluted in SDS sample buffer, Western blot; sample and precipitating antibody not stated. A general note: A western blot detects proteins with antibodies after separation by electrophoresis.

No constants are given. Whether binding was seen depends on the method and setting. In cells and extracts the contact can be indirect. Some binding calls cover weakened binding; strength is not graded here.

Regarding “Neuropilin-1 (Nrp1) (from UniProt P97333 22-923) (receptor)”, the binding result was “binds”.

(Values after paper PMC11231174.)
